No constants are given. Whether binding was seen depends on the method and setting. In cells and extracts the contact can be indirect. Some entries that bind do so weakly or less than the wild type. For part of these data: Tags and fused reporters may be left off the sequences shown.
Key:
[1] = biological target: T1, HSP20, wild type, transfected into HEKB2 / HEK293 cells (human) (UniProt O14558); assay: co-immunopurification with HSP20 from co-transfected HEKB2 cells, Western blot
T1 sequence: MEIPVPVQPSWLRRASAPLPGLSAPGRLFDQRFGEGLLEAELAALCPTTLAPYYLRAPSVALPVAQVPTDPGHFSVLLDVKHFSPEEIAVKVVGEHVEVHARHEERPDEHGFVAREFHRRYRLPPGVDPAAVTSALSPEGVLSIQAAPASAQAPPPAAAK

The chains behind the UniProt entries cited, without tags or fusion partners. Where a name states a change or a piece, a line headed by the entry shows the natural chain unless it says otherwise. A line that says so, or that is headed by a name, gives the form on record, which may keep a tag or linker.
MBP-PDE4D3 (Q08499, form named): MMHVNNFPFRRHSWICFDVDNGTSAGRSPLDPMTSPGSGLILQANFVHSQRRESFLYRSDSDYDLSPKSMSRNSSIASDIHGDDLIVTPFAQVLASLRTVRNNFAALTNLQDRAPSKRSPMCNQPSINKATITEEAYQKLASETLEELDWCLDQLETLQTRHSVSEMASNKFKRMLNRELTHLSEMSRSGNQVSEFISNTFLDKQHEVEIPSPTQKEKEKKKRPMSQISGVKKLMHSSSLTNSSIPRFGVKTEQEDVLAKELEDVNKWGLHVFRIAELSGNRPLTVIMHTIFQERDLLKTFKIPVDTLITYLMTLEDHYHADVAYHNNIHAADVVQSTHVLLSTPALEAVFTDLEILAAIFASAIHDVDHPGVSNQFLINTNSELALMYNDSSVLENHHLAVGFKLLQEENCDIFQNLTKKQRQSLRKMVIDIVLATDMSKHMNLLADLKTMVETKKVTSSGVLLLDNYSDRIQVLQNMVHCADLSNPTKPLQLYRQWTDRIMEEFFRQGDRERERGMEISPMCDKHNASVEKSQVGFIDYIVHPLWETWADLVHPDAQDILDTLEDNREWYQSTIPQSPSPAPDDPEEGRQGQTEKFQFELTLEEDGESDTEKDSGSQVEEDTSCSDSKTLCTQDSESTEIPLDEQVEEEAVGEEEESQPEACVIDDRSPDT
PDE4D9 (transfected into HEKB2 cells) (Q08499, form named): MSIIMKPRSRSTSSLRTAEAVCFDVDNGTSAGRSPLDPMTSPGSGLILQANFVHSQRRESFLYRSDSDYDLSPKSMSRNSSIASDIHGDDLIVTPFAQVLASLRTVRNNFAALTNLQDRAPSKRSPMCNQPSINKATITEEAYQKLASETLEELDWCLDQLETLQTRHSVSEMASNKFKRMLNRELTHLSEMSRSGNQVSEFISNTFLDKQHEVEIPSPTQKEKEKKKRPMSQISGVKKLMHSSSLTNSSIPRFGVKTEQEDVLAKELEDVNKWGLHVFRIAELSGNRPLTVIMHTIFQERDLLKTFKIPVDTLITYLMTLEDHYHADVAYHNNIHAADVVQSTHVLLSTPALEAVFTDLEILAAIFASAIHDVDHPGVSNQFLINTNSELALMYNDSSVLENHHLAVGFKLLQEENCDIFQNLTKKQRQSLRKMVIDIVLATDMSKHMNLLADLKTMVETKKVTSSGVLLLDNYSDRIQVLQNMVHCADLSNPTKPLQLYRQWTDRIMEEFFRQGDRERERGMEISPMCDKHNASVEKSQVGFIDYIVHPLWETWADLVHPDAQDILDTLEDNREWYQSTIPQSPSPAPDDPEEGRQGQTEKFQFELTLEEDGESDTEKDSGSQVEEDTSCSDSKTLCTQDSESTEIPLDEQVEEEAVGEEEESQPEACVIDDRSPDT
PDE4D8 (transfected into HEKB2 cells) (Q08499, form named): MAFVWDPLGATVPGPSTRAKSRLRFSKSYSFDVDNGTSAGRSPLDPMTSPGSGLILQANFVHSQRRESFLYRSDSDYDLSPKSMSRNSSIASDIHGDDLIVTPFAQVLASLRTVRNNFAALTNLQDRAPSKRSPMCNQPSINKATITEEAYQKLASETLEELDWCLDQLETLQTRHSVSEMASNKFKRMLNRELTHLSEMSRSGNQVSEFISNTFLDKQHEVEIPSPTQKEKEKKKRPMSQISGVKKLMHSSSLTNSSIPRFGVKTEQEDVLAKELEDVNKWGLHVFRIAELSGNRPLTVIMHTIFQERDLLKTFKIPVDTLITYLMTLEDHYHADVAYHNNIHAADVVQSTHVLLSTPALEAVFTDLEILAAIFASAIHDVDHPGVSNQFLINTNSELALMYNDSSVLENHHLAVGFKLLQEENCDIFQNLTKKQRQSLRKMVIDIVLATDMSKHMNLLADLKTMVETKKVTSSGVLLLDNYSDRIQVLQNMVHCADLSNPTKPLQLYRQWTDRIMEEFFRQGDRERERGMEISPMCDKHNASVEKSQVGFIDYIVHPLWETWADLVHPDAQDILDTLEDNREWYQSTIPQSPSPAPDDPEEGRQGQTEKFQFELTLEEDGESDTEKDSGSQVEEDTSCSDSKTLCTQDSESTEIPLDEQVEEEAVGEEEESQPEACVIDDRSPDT
PDE4D1 (transfected into HEKB2 cells) (Q08499, form named): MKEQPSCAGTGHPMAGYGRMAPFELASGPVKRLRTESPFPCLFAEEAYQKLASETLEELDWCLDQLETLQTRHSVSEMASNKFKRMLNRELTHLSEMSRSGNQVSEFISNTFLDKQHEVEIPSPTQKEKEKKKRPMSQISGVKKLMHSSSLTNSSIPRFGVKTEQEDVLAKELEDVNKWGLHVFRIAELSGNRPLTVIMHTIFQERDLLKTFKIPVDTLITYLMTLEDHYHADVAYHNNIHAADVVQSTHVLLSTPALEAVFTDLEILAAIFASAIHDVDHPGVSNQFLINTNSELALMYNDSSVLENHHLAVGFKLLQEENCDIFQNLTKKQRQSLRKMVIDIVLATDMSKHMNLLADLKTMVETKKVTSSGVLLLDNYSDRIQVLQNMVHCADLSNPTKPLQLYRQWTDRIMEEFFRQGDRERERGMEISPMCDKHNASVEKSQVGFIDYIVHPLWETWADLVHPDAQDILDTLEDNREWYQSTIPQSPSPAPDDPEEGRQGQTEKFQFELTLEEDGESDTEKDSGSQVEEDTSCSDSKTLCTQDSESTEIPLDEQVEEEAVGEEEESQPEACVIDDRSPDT
PDE4D7 (transfected into HEKB2 cells) (Q08499, form named): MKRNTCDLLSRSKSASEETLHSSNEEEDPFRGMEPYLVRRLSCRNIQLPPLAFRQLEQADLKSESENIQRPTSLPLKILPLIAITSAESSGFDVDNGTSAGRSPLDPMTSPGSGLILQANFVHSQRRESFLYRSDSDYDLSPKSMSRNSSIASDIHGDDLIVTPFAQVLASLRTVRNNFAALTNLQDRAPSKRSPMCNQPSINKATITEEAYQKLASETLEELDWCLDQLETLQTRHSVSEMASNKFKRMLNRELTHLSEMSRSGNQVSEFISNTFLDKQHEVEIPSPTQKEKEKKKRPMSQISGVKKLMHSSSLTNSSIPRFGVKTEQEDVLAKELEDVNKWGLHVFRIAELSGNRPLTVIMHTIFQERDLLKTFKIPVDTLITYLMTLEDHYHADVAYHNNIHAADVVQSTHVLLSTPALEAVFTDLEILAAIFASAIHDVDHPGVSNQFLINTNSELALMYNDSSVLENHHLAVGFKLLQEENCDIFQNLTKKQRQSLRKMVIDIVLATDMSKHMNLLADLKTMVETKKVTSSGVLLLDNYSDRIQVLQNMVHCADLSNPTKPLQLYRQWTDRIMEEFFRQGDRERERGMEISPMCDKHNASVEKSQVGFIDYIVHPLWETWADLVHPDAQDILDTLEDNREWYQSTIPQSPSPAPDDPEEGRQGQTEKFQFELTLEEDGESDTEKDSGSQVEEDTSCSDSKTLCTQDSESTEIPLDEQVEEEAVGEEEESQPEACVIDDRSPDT
GST-PDE4B3 (Q07343, form named): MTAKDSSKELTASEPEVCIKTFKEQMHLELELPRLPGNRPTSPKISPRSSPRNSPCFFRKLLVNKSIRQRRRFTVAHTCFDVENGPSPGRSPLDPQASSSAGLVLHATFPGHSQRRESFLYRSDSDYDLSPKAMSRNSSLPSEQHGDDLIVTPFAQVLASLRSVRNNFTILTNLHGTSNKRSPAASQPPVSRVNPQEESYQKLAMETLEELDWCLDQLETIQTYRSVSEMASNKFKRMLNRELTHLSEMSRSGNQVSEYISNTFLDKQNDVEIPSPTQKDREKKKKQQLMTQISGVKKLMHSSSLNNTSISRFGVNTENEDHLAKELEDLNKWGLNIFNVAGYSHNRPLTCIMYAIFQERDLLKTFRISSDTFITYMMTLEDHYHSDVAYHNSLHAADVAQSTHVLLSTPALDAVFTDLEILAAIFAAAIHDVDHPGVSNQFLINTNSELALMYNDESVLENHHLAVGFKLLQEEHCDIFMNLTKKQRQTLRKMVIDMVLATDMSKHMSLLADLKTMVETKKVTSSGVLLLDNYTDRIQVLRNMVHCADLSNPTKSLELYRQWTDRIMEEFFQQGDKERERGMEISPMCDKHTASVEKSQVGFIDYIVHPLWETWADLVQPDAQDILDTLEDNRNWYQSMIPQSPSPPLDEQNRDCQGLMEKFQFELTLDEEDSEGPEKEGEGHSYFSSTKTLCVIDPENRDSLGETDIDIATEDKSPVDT

[2] = biological target: T2, His-HSP20 (purified recombinant His-tagged HSP20) (human) (UniProt O14558); assay: GST pull-down with purified recombinant proteins, immunoblot (data not shown)
T2 sequence: T1 sequence

[3] = biological target: T2, His-HSP20 (purified recombinant His-tagged HSP20) (human); assay: pull-down of HSP20 by its His tag, test for co-purification of PDE4

binding [1]	Substance	further results
binds	PDE4D7 (transfected into HEKB2 cells) (from UniProt Q08499 1-748) (enzyme)	–
binds	PDE4D2 (transfected into HEKB2 cells) (from UniProt Q08499 1-507) (enzyme)	–

Further lines, the substance ahead of its results:

Substance	binding [1]	further results
PDE4D3 (transfected into HEKB2 cells) (from UniProt Q08499 1-673) (enzyme)	binds	–
GST-PDE4B3 (from UniProt Q07343 1-721) (enzyme)	–	binding [2]: binds
GST-PDE4D3 (from UniProt Q08499 1-673) (enzyme)	–	binding [2]: binds
MBP-PDE4D3 (from UniProt Q08499 1-673) (enzyme)	–	binding [3]: binds
PDE4D9 (transfected into HEKB2 cells) (from UniProt Q08499 1-679) (enzyme)	binds	–
PDE4D8 (transfected into HEKB2 cells) (from UniProt Q08499 1-687) (enzyme)	binds	–
PDE4D1 (transfected into HEKB2 cells) (from UniProt Q08499 1-584) (enzyme)	binds	–

From patent US20130209439A1, “INHIBITORS OF PDE4 BINDING TO HSP20” (THE UNIVERSITY COURT OF THE UNIVERSITY OF GLASGOW, priority 2010, published 2013)
